ChEMBL document CHEMBL4316593 (Eur J Med Chem, 2019)
Further values from the same series stand in other lists.

Assays:
Format in all cases: cell-based
Conditions in all cases: U-87MG ATCC
[1] = Inhibition of RTK/PI3K/AKT/mTOR signaling in human U87 cells assessed as down regulation of GSK3A gene expression at cytotoxic IC50 measured after 48 hrs relative to control
[2] = Inhibition of RTK/PI3K/AKT/mTOR signaling in human U87 cells assessed as up regulation of DnaJ heat shock protein family (Hsp40) member C10 gene expression at cytotoxic IC50 measured after 48 hrs relative to control
[3] = Inhibition of RTK/PI3K/AKT/mTOR signaling in human U87 cells assessed as down regulation of GPATCH2 gene expression at cytotoxic IC50 measured after 48 hrs relative to control
[4] = Inhibition of RTK/PI3K/AKT/mTOR signaling in human U87 cells assessed as up regulation of solute carrier family 39 member 1 gene expression at cytotoxic IC50 measured after 48 hrs relative to control
[5] = Inhibition of RTK/PI3K/AKT/mTOR signaling in human U87 cells assessed as up regulation of AKAP12 gene expression at cytotoxic IC50 measured after 48 hrs relative to control
[6] = Inhibition of RTK/PI3K/AKT/mTOR signaling in human U87 cells assessed as up regulation of plexin B1 gene expression at cytotoxic IC50 measured after 48 hrs relative to control
[7] = Inhibition of RTK/PI3K/AKT/mTOR signaling in human U87 cells assessed as down regulation of SMPD1 gene expression at cytotoxic IC50 measured after 48 hrs relative to control
[8] = Inhibition of RTK/PI3K/AKT/mTOR signaling in human U87 cells assessed as up regulation of SREBF1 gene expression at cytotoxic IC50 measured after 48 hrs relative to control
[9] = Inhibition of RTK/PI3K/AKT/mTOR signaling in human U87 cells assessed as down regulation of USP53 gene expression at cytotoxic IC50 measured after 48 hrs relative to control
[10] = Inhibition of RTK/PI3K/AKT/mTOR signaling in human U87 cells assessed as up regulation of protein phosphatase 1 regulatory inhibitor subunit 14B gene expression at cytotoxic IC50 measured after 48 hrs relative to control
[11] = Inhibition of RTK/PI3K/AKT/mTOR signaling in human U87 cells assessed as up regulation of Rho GTPase activating protein 45 gene expression at cytotoxic IC50 measured after 48 hrs relative to control
[12] = Inhibition of RTK/PI3K/AKT/mTOR signaling in human U87 cells assessed as down regulation of EXOC6 gene expression at cytotoxic IC50 measured after 48 hrs relative to control
[13] = Inhibition of RTK/PI3K/AKT/mTOR signaling in human U87 cells assessed as up regulation of laminin subunit beta 1 gene expression at cytotoxic IC50 measured after 48 hrs relative to control
[14] = Inhibition of RTK/PI3K/AKT/mTOR signaling in human U87 cells assessed as up regulation of SMPD3 gene expression at cytotoxic IC50 measured after 48 hrs relative to control
[15] = Inhibition of RTK/PI3K/AKT/mTOR signaling in human U87 cells assessed as up regulation of transducin beta like 1 X-linked receptor 1 gene expression at cytotoxic IC50 measured after 48 hrs relative to control
[16] = Inhibition of RTK/PI3K/AKT/mTOR signaling in human U87 cells assessed as down regulation of GTF2B gene expression at cytotoxic IC50 measured after 48 hrs relative to control
[17] = Inhibition of RTK/PI3K/AKT/mTOR signaling in human U87 cells assessed as up regulation of AHDC1 gene expression at cytotoxic IC50 measured after 48 hrs relative to control
[18] = Inhibition of RTK/PI3K/AKT/mTOR signaling in human U87 cells assessed as up regulation of mitogen-activated protein kinase 12 gene expression at cytotoxic IC50 measured after 48 hrs relative to control
[19] = Inhibition of RTK/PI3K/AKT/mTOR signaling in human U87 cells assessed as down regulation of OSTF1 gene expression at cytotoxic IC50 measured after 48 hrs relative to control
[20] = Inhibition of RTK/PI3K/AKT/mTOR signaling in human U87 cells assessed as up regulation of doublecortin like kinase 1 gene expression at cytotoxic IC50 measured after 48 hrs relative to control
[21] = Inhibition of RTK/PI3K/AKT/mTOR signaling in human U87 cells assessed as up regulation of SGTB gene expression at cytotoxic IC50 measured after 48 hrs relative to control
[22] = Inhibition of RTK/PI3K/AKT/mTOR signaling in human U87 cells assessed as up regulation of adaptor related protein complex 1 sigma 3 subunit gene expression at cytotoxic IC50 measured after 48 hrs relative to control
[23] = Inhibition of RTK/PI3K/AKT/mTOR signaling in human U87 cells assessed as up regulation of calmin gene expression at cytotoxic IC50 measured after 48 hrs relative to control
[24] = Inhibition of RTK/PI3K/AKT/mTOR signaling in human U87 cells assessed as up regulation of dual specificity phosphatase 4 gene expression at cytotoxic IC50 measured after 48 hrs relative to control
[25] = Inhibition of RTK/PI3K/AKT/mTOR signaling in human U87 cells assessed as up regulation of heat shock protein family A (Hsp70) member 5 gene expression at cytotoxic IC50 measured after 48 hrs relative to control
[26] = Inhibition of RTK/PI3K/AKT/mTOR signaling in human U87 cells assessed as down regulation of VPS39 gene expression at cytotoxic IC50 measured after 48 hrs relative to control
[27] = Inhibition of RTK/PI3K/AKT/mTOR signaling in human U87 cells assessed as up regulation of MAGT1 gene expression at cytotoxic IC50 measured after 48 hrs relative to control
[28] = Inhibition of RTK/PI3K/AKT/mTOR signaling in human U87 cells assessed as down regulation of MIDN gene expression at cytotoxic IC50 measured after 48 hrs relative to control
[29] = Inhibition of RTK/PI3K/AKT/mTOR signaling in human U87 cells assessed as up regulation of mucin 3A, cell surface associated gene expression at cytotoxic IC50 measured after 48 hrs relative to control
[30] = Inhibition of RTK/PI3K/AKT/mTOR signaling in human U87 cells assessed as down regulation of TNKS2 gene expression at cytotoxic IC50 measured after 48 hrs relative to control
[31] = Inhibition of RTK/PI3K/AKT/mTOR signaling in human U87 cells assessed as down regulation of ACSL1 gene expression at cytotoxic IC50 measured after 48 hrs relative to control
[32] = Inhibition of RTK/PI3K/AKT/mTOR signaling in human U87 cells assessed as up regulation of chromosome 16 open reading frame 52 gene expression at cytotoxic IC50 measured after 48 hrs relative to control

## CC(=O)C(=NNc1ccccc1C#N)C(C)=O
[1]
  log2FC: -0.604
[2]
  log2FC: 0.801
[3]
  log2FC: -1.43
[4]
  log2FC: 0.684
[5]
  log2FC: 2.38
[6]
  log2FC: 1.08
[7]
  log2FC: -3.11
[8]
  log2FC: 1.89
[9]
  log2FC: -1
[10]
  log2FC: 0.883
[11]
  log2FC: 1.35
[12]
  log2FC: -0.668
[13]
  log2FC: 0.732
[14]
  log2FC: 3.09
[15]
  log2FC: 1.17
[16]
  log2FC: -0.612
[17]
  log2FC: 0.616
[18]
  log2FC: 0.664
[19]
  log2FC: -1.48
[20]
  log2FC: 1.42
[21]
  log2FC: 0.596
[22]
  log2FC: 0.897
[23]
  log2FC: 1.23
[24]
  log2FC: 0.831
[25]
  log2FC: 0.783
[26]
  log2FC: -0.638
[27]
  log2FC: 0.582
[28]
  log2FC: -1.81
[29]
  log2FC: 1.56
[30]
  log2FC: -0.672
[31]
  log2FC: -0.694
[32]
  log2FC: 0.839
